Test results: the supplement of paper PMC11732987, “Enantioselective OTUD7B fragment discovery through chemoproteomics screening and high-throughput optimisation” (Communications Chemistry, 2025)
The list shows a part of the results. The data scatter; read single values as rough.

Protein sequences, listed by entry. Tags and fused reporters are not part of them. Lines headed by an entry give the natural chain unless they say otherwise; changes in a name come on top. Residues count along the entry.
UniProt Q9UKB3: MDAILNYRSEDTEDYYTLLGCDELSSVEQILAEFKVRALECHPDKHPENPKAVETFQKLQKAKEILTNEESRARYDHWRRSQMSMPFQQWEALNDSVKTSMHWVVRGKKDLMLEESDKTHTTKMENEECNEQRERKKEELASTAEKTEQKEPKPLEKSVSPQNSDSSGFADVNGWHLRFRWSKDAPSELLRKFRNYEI
UniProt Q96QD5: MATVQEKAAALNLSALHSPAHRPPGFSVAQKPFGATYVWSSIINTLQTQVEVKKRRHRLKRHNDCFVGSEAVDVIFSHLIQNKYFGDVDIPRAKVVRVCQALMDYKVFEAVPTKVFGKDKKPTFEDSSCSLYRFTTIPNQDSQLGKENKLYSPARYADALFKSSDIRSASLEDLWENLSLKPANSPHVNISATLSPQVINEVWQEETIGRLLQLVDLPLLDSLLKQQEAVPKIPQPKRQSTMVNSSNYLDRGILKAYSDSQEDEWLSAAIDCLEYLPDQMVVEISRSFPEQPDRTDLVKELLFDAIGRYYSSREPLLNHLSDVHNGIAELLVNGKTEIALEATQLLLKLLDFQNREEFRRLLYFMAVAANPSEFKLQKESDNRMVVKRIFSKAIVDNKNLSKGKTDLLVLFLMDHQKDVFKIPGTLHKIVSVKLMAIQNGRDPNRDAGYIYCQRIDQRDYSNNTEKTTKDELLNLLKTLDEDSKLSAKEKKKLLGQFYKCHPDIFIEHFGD
UniProt Q7L2E3, 441-463: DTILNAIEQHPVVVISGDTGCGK
UniProt O60231: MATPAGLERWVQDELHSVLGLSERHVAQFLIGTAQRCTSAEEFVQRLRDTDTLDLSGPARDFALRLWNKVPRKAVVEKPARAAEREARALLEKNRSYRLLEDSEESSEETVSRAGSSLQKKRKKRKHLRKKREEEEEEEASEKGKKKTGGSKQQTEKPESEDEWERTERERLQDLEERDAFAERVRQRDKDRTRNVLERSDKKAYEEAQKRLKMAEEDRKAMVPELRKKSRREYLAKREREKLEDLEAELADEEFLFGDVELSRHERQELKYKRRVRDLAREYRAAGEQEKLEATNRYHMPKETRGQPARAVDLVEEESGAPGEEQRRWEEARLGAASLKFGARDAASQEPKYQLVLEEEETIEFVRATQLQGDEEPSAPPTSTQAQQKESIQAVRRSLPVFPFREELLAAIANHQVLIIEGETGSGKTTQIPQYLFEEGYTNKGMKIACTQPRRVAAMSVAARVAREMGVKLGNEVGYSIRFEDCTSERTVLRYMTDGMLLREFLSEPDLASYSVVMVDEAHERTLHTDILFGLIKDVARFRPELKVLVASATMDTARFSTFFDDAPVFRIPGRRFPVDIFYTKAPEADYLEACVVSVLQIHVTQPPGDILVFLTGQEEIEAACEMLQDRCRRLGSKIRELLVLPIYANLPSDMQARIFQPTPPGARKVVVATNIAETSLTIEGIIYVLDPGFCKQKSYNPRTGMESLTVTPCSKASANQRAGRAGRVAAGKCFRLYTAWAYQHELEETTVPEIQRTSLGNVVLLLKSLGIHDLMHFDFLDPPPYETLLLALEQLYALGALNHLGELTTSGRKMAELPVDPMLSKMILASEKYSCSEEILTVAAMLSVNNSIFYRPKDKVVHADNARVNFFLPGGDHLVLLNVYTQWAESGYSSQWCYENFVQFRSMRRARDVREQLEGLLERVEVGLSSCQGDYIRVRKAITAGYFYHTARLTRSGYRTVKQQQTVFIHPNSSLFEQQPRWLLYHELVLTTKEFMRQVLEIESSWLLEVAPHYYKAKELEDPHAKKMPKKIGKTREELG
UniProt Q9H6R0: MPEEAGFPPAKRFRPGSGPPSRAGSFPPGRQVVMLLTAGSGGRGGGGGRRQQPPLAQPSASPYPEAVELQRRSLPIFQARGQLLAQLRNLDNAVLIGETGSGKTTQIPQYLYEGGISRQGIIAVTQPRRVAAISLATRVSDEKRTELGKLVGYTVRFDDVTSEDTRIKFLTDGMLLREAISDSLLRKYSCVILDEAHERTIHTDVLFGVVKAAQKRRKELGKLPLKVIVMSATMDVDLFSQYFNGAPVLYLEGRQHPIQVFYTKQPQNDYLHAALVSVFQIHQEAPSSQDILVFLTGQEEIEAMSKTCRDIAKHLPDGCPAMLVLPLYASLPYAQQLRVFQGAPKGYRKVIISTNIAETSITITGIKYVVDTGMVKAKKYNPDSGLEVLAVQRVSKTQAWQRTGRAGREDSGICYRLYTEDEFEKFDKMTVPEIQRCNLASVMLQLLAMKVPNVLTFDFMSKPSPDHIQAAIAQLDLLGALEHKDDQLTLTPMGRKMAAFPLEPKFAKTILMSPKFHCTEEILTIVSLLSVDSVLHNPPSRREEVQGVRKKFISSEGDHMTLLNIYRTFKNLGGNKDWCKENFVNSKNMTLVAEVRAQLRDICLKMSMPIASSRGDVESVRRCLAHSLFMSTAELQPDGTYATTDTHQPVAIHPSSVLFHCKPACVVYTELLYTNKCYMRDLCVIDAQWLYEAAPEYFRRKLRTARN
UniProt Q9H2U1, 215-236: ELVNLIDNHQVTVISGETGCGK
UniProt Q8IY37, 893-913: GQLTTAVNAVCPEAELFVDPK
UniProt Q9H147: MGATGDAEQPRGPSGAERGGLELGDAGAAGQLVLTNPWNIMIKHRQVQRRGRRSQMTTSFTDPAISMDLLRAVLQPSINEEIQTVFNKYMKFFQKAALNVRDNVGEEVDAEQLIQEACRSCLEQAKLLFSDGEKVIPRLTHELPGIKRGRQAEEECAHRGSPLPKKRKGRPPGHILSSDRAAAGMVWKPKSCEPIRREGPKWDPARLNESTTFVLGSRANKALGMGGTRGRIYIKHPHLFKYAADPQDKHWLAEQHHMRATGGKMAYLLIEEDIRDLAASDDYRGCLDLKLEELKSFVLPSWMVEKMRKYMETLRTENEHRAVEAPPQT
UniProt Q4LDG9: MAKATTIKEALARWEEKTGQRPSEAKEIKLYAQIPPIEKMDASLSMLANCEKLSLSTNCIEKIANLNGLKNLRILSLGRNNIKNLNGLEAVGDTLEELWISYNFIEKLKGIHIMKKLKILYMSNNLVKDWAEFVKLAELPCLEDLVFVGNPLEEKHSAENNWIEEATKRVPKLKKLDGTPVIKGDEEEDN
UniProt O76075: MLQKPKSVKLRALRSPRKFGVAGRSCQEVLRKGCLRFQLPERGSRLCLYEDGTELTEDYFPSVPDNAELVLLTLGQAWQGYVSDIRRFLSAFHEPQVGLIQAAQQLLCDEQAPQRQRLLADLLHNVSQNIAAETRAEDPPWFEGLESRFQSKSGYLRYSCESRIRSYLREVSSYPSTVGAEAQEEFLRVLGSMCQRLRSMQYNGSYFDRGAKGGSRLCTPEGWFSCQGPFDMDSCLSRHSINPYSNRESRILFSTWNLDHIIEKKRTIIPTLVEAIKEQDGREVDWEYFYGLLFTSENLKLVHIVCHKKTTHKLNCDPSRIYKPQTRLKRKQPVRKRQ
UniProt O75165, whole entry, looked up: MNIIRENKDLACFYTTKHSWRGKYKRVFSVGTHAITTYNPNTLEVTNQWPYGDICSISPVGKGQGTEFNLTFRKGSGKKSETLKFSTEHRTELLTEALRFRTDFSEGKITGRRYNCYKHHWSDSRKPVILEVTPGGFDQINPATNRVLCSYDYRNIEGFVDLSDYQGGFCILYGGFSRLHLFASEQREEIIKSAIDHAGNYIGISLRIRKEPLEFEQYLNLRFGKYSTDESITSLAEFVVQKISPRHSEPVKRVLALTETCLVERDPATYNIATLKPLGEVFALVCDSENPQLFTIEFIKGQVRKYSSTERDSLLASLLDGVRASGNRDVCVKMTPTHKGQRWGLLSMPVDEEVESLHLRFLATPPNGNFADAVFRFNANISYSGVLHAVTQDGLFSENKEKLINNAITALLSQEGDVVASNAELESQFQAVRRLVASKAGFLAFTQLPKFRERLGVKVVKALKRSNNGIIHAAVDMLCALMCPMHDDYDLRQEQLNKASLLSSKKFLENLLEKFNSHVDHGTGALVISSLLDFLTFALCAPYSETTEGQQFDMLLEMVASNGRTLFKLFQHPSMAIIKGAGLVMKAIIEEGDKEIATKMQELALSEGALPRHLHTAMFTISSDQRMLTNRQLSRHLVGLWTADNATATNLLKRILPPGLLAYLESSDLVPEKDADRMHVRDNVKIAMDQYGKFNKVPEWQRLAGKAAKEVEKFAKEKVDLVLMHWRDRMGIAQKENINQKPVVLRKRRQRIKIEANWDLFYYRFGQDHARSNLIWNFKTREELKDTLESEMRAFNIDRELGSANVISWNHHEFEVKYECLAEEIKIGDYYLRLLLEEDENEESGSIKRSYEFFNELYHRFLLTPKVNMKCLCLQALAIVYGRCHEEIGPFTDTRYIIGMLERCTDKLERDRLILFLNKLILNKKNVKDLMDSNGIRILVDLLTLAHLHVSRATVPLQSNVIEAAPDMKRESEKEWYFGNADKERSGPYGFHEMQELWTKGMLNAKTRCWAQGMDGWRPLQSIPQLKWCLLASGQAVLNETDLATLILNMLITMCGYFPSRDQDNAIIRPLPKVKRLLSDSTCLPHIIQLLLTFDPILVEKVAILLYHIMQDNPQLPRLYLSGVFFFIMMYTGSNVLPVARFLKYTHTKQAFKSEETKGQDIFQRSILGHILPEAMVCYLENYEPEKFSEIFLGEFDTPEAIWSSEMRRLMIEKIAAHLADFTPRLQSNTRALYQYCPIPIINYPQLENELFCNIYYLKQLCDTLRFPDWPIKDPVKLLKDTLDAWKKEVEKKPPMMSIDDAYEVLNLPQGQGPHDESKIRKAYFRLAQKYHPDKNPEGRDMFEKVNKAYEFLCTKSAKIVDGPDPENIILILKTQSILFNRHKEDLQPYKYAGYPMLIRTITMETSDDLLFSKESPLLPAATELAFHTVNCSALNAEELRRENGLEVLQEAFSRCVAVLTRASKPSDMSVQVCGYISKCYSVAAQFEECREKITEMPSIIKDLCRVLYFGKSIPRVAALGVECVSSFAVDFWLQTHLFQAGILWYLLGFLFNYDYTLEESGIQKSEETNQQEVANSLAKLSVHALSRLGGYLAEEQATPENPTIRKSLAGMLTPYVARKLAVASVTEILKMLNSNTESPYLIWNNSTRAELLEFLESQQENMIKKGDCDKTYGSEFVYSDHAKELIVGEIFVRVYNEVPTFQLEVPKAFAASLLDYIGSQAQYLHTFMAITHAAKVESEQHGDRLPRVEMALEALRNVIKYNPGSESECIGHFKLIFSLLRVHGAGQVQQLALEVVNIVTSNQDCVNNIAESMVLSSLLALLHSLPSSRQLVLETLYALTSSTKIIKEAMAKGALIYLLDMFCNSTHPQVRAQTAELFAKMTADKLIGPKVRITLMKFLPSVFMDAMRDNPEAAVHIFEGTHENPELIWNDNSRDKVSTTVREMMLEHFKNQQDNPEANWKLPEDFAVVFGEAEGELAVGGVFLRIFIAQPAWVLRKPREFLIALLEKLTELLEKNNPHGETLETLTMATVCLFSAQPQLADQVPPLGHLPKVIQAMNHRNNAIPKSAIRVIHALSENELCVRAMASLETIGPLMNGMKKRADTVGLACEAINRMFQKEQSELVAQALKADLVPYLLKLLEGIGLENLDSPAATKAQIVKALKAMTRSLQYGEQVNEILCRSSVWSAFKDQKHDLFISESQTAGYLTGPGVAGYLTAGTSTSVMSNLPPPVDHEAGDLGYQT

How the values were obtained:
[1] = compound: ClCC(=O)N[C@@H]1CCCc2ccccc12; test: log2 mean competition ratio of IA-DTB cysteine labelling (DMSO/compound) (log2 ratio); higher = stronger cysteine engagement by compound; conditions: treatment time: 4 h, cell line lysate: HEK293T
Method: (§1)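 IA-DTB competitive cysteine chemoproteomics in HEK293T RIPA lysate. Lysates were treated with compound 29 or 30 at 50 or 200 µM for 4 h, then IA-DTB (500 µM, 1 h), trypsin-digested, NeutrAvidin-enriched and analysed by diaPASEF. Competition ratio = intensity DMSO / intensity compound (n=4 treated, n=64 DMSO); binding: mean log2 CR ≥ 1 and p ≤ 0.05 plus QC filters. Target is the cysteine site.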

[2] = compound: ClCC(=O)N[C@H]1CCCc2ccccc12; test: as above; conditions: treatment time: 4 h, cell line lysate: HEK293T
Method: as §1

For DNAJC12 C41 (UniProt Q9UKB3), the “log2 mean competition ratio” value ([1]; 50 µM) was 0.0331 and the “log2 mean competition ratio” value ([1]; 200 µM) was -0.327.
For DOCK4 C530, the “log2 mean competition ratio” value ([1]; 50 µM) was 0.0201 and the “log2 mean competition ratio” value ([1]; 200 µM) was -0.245.
In the case of DEPDC7 C129 (UniProt Q96QD5), the “log2 mean competition ratio” value ([1]; 50 µM) is reported as 0.142 and the “log2 mean competition ratio” value ([1]; 200 µM) is reported as 0.195.
In the case of DNMT3A C340 (UniProt Q9Y6K1), the “log2 mean competition ratio” value ([1]; 50 µM) is reported as 0.0334, the “log2 mean competition ratio” value ([1]; 200 µM) is reported as -0.185 and the “log2 mean competition ratio” value ([2]; 200 µM) is reported as 0.0637.
With DHX30 C461 (UniProt Q7L2E3) the “log2 mean competition ratio” value ([1]; 50 µM) was 0.0786, the “log2 mean competition ratio” value ([1]; 200 µM) was 0.631 and the “log2 mean competition ratio” value ([2]; 50 µM) was -0.261. For the same target, the “log2 mean competition ratio” value ([2]; 200 µM) was 0.186.
For DHX16 C450 (UniProt O60231), the “log2 mean competition ratio” value ([1]; 50 µM) was -0.121 and the “log2 mean competition ratio” value ([1]; 200 µM) was -0.181.
For DHX33 C579 (UniProt Q9H6R0), the “log2 mean competition ratio” value ([1]; 50 µM) was 0.0108, the “log2 mean competition ratio” value ([1]; 200 µM) was 0.0712 and the “log2 mean competition ratio” value ([2]; 50 µM) was -0.376. The “log2 mean competition ratio” value ([2]; 200 µM) was -0.0659.
With DHX33 C414 (UniProt Q9H6R0) the “log2 mean competition ratio” value ([1]; 50 µM) was -0.173 and the “log2 mean competition ratio” value ([1]; 200 µM) was -0.147.
For DFFA C38 (UniProt O00273), the “log2 mean competition ratio” value ([1]; 50 µM) was -0.168 and the “log2 mean competition ratio” value ([1]; 200 µM) was -0.0512.
For DIAPH1 C1227, the “log2 mean competition ratio” value ([1]; 50 µM) was 0.334 and the “log2 mean competition ratio” value ([1]; 200 µM) was -0.0549.
DHX36 C234 (UniProt Q9H2U1) was tested, and the “log2 mean competition ratio” value ([1]; 50 µM) was -0.333 and the “log2 mean competition ratio” value ([1]; 200 µM) was 0.0508.
For DOCK11 C797, the “log2 mean competition ratio” value ([1]; 50 µM) was -0.382, the “log2 mean competition ratio” value ([1]; 200 µM) was -0.0129 and the “log2 mean competition ratio” value ([2]; 200 µM) was 0.155.
In the case of DHX37 C903 (UniProt Q8IY37), the “log2 mean competition ratio” value ([1]; 50 µM) is reported as -0.0275 and the “log2 mean competition ratio” value ([1]; 200 µM) is reported as -0.0328.
DNTTIP1 C156 (UniProt Q9H147) was tested, and the “log2 mean competition ratio” value ([1]; 50 µM) was -0.219 and the “log2 mean competition ratio” value ([1]; 200 µM) was 0.48.
For DNAL1 C50 (UniProt Q4LDG9), the “log2 mean competition ratio” value ([1]; 50 µM) was 0.242 and the “log2 mean competition ratio” value ([1]; 200 µM) was 0.219.
For DFFB C316 (UniProt O76075), the “log2 mean competition ratio” value ([1]; 50 µM) was -0.105 and the “log2 mean competition ratio” value ([1]; 200 µM) was -0.0671.
For DNAJC13 C1354 (UniProt O75165), the “log2 mean competition ratio” value ([1]; 50 µM) was 0.0832 and the “log2 mean competition ratio” value ([1]; 200 µM) was -0.166.
With DENND4A C937 (UniProt Q7Z401) the “log2 mean competition ratio” value ([1]; 50 µM) was 0.0121 and the “log2 mean competition ratio” value ([1]; 200 µM) was 0.316.
With “DNAAF5_(C409,C409,C420,C420) (UniProt Q86Y56)” the “log2 mean competition ratio” value ([1]; 50 µM) was -0.199, the “log2 mean competition ratio” value ([1]; 200 µM) was 0.067 and the “log2 mean competition ratio” value ([2]; 200 µM) was -0.126.
For DNAJC13 C2181 (UniProt O75165), the “log2 mean competition ratio” value ([1]; 50 µM) was -0.209 and the “log2 mean competition ratio” value ([1]; 200 µM) was 0.172.
In the case of DOCK9 C94 (UniProt Q9BZ29), the “log2 mean competition ratio” value ([1]; 50 µM) is reported as -0.436 and the “log2 mean competition ratio” value ([1]; 200 µM) is reported as -0.229.
